# Percent effect of library compounds

Source: ChEMBL document CHEMBL3988442, “University of Dundee, Small-Polar-MMV Screening Library” (2021).

Each number is a percent effect as filed.
The controls that fix the scale are not given in the record; negative values are as filed.
Compounds were drawn at random from those tested, without regard to their results.
Two or more numbers in one place are separate tests of the same structure; such repeats can differ widely.

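Whole-cell growth test on Mycobacterium tuberculosis, read after 4 days in a medium based on cholesterol and the lipid DPPC; the read-out is not stated. Concentration: 50 µM. Direction is inferred from retests: higher values go with more growth inhibition. Of about 69,000 compounds tested this way, about 370 (0.54%) reached 50% or more in at least one test.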

CCCN1CCCN(CCCOc2cccc(C#N)c2)CC1 gave 1.368%.
CCCS(=O)(=O)NCc1nc(C)cc(N2CCCC2)n1 gave 0.5171%.
O=C1N(c2cccc(F)c2)Cc2nc(=O)[nH]n21 gave 5.562% and -1.373%.
CC(C)COCCC(=O)Nc1ccc2oc(=O)n(CCN(C)C)c2c1 gave -19.49% and -10.18%.
COc1ccc(NC(=O)c2nc3ccccc3n(C)c2=O)c(OC)c1 gave 4.197%.
[H][C@@]12CN(S(=O)(=O)c3ccccc3)C[C@@]1([H])N(CCOC)C(=O)CO2 gave -30.84%.
NC(=O)C1=NN2C(=NS(=O)(=O)c3ccccc32)N1 gave -3.769%.
CC[C@H](C)[C@H](N)C(=O)N1CC(=O)c2sc(NCc3ccccc3)nc2C1 gave -19.01%.
CN(C)c1cccc(C(=O)Nc2cn(C)c(=O)n(C)c2=O)c1 gave 0.0474%.
COc1ncc(C2(O)CCN(Cc3c(F)cccc3F)CC2)c(OC)n1.Cl gave -17.88%.
CN1CCCC(N(C)C(=O)c2ccc(NC(=O)c3ccc[nH]3)cc2)C1 (stereo not drawn) gave 6.319%.
O=C(O)C(F)(F)F.[H][C@@]12CCN(S(=O)(=O)c3cccnc3)C[C@]1(C(=O)NC)CCO2 gave -5.243%.
O=C(O)c1c[nH]c2cc(NS(=O)(=O)c3cc(F)ccc3Cl)ccc12 gave -8.093%.
CNS(=O)(=O)CCn1cc(-c2cc3c(cc2OC)CCC3)nn1 gave -7.777%.
CC1=C(c2ccc(C(C)C)cc2)S(=O)(=O)N=C1N1CCc2ccccc21 gave -18.52%.
Cn1nc(C(=O)N2CCCC2)c2c1CN(CC1CCOCC1)C2 gave -17.53%.
Cc1cnn(CC2CN(CCCS(=O)(=O)N(C)C)CCO2)c1 (stereo not drawn) gave 7.383%.
O=C1OCCC1N1CCN(c2ccc(O)cc2)CC1 (stereo not drawn) gave -10.49%.
Cc1ccccc1C1(C(=O)N2CCOC(C)C2)CCOCC1 (stereo not drawn) gave -4.561%.
Cc1nc(C(NC(=O)CC(F)(F)F)c2ccc(Cl)cc2)no1 (stereo not drawn) gave 21.42%.
Cc1nc(C(=O)N2CCCC(n3cncn3)C2)cs1 (stereo not drawn) gave 1.408%.
COc1cc(F)c(-n2cnc(CCNC(C)=O)c2)cc1F gave -6.805%.
CC(C)CC(=O)N1CCN(C(=O)NC(C)C)CC2(CC(=O)N(C)C2)C1 (stereo not drawn) gave -9.87%.
CS(=O)(=O)NCCCNC(=O)c1cccnc1O gave -17.15% and 1.19%.
CN1CCCC1c1cccc(Cc2ccc(F)cc2)n1 (stereo not drawn) gave 10.66%.
CC1(C)CN(C(=O)NCCc2ccn(-c3ccccc3)n2)CCO1 gave -0.3105%.
Cc1cc(C(=O)N2CCc3nc(N4CCCC4)nc(C)c3CC2)c(C)o1 gave -7.55%.
Cc1cc(CN(C)C(=O)CN2CC3(CCNCC3)OC2=O)n(C)n1 gave 1.479%.
COC(=O)CN(C(=O)c1ccc(Cl)o1)c1cccc(F)c1 gave -6.986%.
CCc1cnc2c(c1Nc1ccccc1OC)c(=O)n(C)c(=O)n2C gave -2.423%.
CN(C(=O)NC1CC1)C1CCN(c2ccc(Cl)cc2)CC1 gave 18.5% and 6.312%.
CCC(C)(CC(=O)OC)NC(=O)c1ccc2[nH]ccc2c1 (stereo not drawn) gave -2.629%.
CCn1cc(CN(C)S(=O)(=O)N2CCCC2c2ccco2)cn1 (stereo not drawn) gave -9.603% and 7.859%.
C=C(C)COc1cccc(C(=O)N2CCC3(CCOCC3)CC2)c1 gave -14.25%.
CC(NCCN1CCN(C(=O)C2CCCC2)CC1)c1cnn(C)c1 (stereo not drawn) gave -27.63%.
CC(C)Nc1ncnc2c1CCN(C(=O)c1ccccc1F)CC2.O=C(O)C(F)(F)F gave -0.9746%.
CC(CN1CCOCC1)NC(=O)NCCc1ccc(Cl)s1 (stereo not drawn) gave -0.4715% and -1.532%.
Cc1ccc2nc(CN3CCCC3c3cccnc3)cc(O)c2c1 (stereo not drawn) gave 11.68%.

Repeated from the top, 4 entries:

{"structure": "CCCN1CCCN(CCCOc2cccc(C#N)c2)CC1", "Percent Effect": 1.368}
{"structure": "CCCS(=O)(=O)NCc1nc(C)cc(N2CCCC2)n1", "Percent Effect": 0.5171}
{"structure": "O=C1N(c2cccc(F)c2)Cc2nc(=O)[nH]n21", "Percent Effect": "5.562 and -1.373"}
{"structure": "CC(C)COCCC(=O)Nc1ccc2oc(=O)n(CCN(C)C)c2c1", "Percent Effect": "-19.49 and -10.18"}